Laboratory results: article PMC4392834
No constants are given. Whether binding was seen depends on the method and setting. Binding seen in cells or lysates may run through a third protein. Some binding calls cover weakened binding; strength is not graded here.

The chains behind the UniProt entries cited, without tags or fusion partners.
UniProt P29555: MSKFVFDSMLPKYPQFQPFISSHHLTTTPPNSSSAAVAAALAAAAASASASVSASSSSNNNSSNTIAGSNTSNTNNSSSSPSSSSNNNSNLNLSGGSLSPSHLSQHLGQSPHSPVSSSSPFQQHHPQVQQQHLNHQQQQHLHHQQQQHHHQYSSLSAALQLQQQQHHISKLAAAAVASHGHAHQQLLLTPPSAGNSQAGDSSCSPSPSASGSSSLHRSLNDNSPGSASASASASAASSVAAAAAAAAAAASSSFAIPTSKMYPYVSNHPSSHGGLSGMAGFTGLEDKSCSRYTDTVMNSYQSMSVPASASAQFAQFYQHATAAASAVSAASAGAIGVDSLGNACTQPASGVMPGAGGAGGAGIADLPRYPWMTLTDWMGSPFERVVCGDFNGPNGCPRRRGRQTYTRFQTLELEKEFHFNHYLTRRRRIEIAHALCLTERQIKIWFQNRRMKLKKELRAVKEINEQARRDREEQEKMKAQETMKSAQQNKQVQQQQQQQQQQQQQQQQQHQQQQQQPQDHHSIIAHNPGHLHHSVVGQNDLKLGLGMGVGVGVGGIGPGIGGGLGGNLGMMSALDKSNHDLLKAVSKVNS
UniProt P09077: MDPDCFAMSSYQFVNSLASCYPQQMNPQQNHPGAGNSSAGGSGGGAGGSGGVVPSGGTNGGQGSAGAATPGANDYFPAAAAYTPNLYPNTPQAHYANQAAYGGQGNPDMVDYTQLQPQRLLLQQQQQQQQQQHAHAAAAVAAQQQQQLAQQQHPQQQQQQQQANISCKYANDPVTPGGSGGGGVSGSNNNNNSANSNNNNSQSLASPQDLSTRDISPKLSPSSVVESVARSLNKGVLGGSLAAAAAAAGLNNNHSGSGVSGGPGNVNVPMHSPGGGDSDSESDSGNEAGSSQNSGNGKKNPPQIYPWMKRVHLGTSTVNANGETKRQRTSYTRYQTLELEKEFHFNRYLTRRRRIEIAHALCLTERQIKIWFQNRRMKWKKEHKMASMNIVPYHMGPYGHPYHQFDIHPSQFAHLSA
UniProt P02833: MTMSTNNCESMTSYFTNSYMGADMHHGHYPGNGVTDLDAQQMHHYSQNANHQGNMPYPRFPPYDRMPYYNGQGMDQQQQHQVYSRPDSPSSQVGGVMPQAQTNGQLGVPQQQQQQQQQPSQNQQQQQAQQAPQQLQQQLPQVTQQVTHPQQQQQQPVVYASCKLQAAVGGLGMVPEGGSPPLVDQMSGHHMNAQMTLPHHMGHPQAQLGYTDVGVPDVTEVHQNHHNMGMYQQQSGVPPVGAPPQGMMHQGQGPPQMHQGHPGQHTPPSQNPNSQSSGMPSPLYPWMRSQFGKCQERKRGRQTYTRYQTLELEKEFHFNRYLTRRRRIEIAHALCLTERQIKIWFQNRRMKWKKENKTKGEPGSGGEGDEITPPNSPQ
UniProt P83949: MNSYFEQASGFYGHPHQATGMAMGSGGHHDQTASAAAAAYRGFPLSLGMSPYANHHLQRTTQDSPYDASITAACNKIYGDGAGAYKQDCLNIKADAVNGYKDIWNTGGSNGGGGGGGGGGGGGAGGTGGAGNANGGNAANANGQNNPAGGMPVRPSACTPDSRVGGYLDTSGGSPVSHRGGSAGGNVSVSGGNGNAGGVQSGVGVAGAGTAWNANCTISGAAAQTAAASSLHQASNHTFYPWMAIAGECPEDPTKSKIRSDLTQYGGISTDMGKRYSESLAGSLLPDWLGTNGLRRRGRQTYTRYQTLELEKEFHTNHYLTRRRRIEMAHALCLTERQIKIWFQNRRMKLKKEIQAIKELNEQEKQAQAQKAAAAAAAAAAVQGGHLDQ
UniProt P09632: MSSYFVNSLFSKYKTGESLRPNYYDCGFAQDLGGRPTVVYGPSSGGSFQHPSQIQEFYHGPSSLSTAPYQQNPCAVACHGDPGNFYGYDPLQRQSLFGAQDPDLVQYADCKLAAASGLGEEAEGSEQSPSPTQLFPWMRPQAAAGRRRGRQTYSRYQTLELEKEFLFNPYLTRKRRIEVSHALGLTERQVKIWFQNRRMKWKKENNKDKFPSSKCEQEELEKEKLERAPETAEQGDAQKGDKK

Legend:
[1] = biological target: VC-AbdA (Drosophila melanogaster), P29555; assay: split reporter; Venus BiFC: VC-Hox and VN-TF co-expressed in live Drosophila embryos with the corresponding Hox-Gal4 driver (abdA-Gal4 for AbdA); epidermis, stage 10-12, quantified at stage 10; affected if equal or lower than 50% of wild type, stronger if 120% or more; conditions: remark: other sources report otherwise
[2] = biological target: VC-AbdA (Drosophila melanogaster), P29555; assay: split reporter; competition: cold (unfused) UAS-TF co-expressed with VC-AbdA and VN-Exd under abdA-Gal4; altered BiFC in the epidermis of stage 10-12 live embryos; conditions: remark: other sources report otherwise
[3] = biological target: VC-AbdB (Drosophila melanogaster) (UniProt P09087); assay: split reporter; Venus BiFC: VC-Hox and VN-TF co-expressed in live Drosophila embryos with the corresponding Hox-Gal4 driver (abdA-Gal4 for AbdA); epidermis, stage 10-12, quantified at stage 10; affected if equal or lower than 50% of wild type, stronger if 120% or more
[4] = biological target: VC-AbdA (Drosophila melanogaster) (UniProt P29555); assay: as above
[5] = biological target: VC-Scr (Drosophila melanogaster) (UniProt P09077); assay: as above
[6] = biological target: VC-Antp (Drosophila melanogaster) (UniProt P02833); assay: as above
[7] = biological target: VC-Ubx (Drosophila melanogaster) (UniProt P83949); assay: as above
[8] = biological target: AbdA-HA (Drosophila melanogaster), P29555; assay: co-IP; S2 cells transfected with AbdA-HA, actin-Gal4 and the VN-cofactor; nuclear extracts; ip with anti-HA, VN-cofactor revealed with anti-GFP; conditions: remark: other sources report otherwise
[9] = biological target: HoxB8 (VC fusion) (mouse) (UniProt P09632); assay: split reporter; Venus BiFC: VC-Hox and VN-TF co-expressed in live Drosophila embryos with the corresponding Hox-Gal4 driver (abdA-Gal4 for AbdA); epidermis, stage 10-12, quantified at stage 10; affected if equal or lower than 50% of wild type, stronger if 120% or more

B1: VN-Exd, P40427 1-376 (protein)
chain: MEDPNRMLAHTGGMMAPQGYGLSGQDDGQNAGSENEVRKQKDIGEILQQIMSISEQSLDEAQARKHTLNCHRMKPALFSVLCEIKEKTVLSIRNTQEEEPPDPQLMRLDNMLIAEGVAGPEKGGGGAAAASAAAASQGGSLSIDGADNAIEHSDYRAKLAQIRQIYHQELEKYEQACNEFTTHVMNLLREQSRTRPITPKEIERMVQIIHKKFSSIQMQLKQSTCEAVMILRSRFLDARRKRRNFSKQASEILNEYFYSHLSNPYPSEEAKEELARKCGITVSQVSNWFGNKRIRYKKNIGKAQEEANLYAAKKAAGASPYSMAGPPSGTTTPMMSPAPPQDSMGYPMGSGGYDQQQPYDNSMGGYDPNLHQDLSP
binding [1]: binds | binding [2]: binds

B2: VN-Slouch (protein, UniProt P22807 1-659)
chain: MVMLQSPAQKASDSASAQNTAVGGLMSPNSNPDSPKSNTSPDVASADSVVSGTGGGSTPPAAKIPKFIISANGAAVAGKQEQELRYSLERLKQMSSESGSLLSRLSPLQEDSQDKEKPNHNNNNSLTNHNANSNTRRSQSPPASVGSVSFSSPAQQRKLLELNAVRHLARPEPLQHPHAALLQQHPHLLQNPQFLAAAQQHMHHHQHQHHQHPAHPHSHQHPHPHPHPHPHPHPSAVFHLRAPSSSSTAPPSPATSPLSPPTSPAMHSDQQMSPPIAPPQNPPHSSQPPQQQQVAAPSDMDLERIKLVAAVAARTTQASSTSALASASNSVSNASISISNSSSGSPSGRDLSDYGFRIQLGGLAAAAAAAAATSRQIAAATYARSDTSEELNVDGNDEDSNDGSHSTPSVCPVDLTRSVNSSAAANPSSASTSASSDRDAATKRLAFSVENILDPNKFTGNKLPSGPFGHPRQWSYERDEEMQERLDDDQSEDMSAQDLNDMDQDDMCDDGSDIDDPSSETDSKKGGSRNGDGKSGGGGGGGSKPRRARTAFTYEQLVSLENKFKTTRYLSVCERLNLALSLSLTETQVKIWFQNRRTKWKKQNPGMDVNSPTIPPPGGGSFGPGAYASGLLYSHAVPYPPYGPYFHPLGAHHLSHSHS
binding [3]: no binding | binding [4]: binds

B3: VN-Twist (protein, UniProt P10627 1-490)
chain: MMSARSVSPKVLLDISYKPTLPNIMELQNNVIKLIQVEQQAYMQSGYQLQHQQQHLHSHQHHQQHHQQQHAQYAPLPSEYAAYGITELEDTDYNIPSNEVLSTSSNQSAQSTSLELNNNNTSSNTNSSGNNPSGFDGQASSGSSWNEHGKRARSSGDYDCQTGGSLVMQPEHKKLIHQQQQQQQQHQQQIYVDYLPTTVDEVASAQSCPGVQSTCTSPQSHFDFPDEELPEHKAQVFLPLYNNQQQQSQQLQQQQPHQQSHAQMHFQNAYRQSFEGYEPANSLNGSAYSSSDRDDMEYARHNALSSVSDLNGGVMSPACLADDGSAGSLLDGSDAGGKAFRKPRRRLKRKPSKTEETDEFSNQRVMANVRERQRTQSLNDAFKSLQQIIPTLPSDKLSKIQTLKLATRYIDFLCRMLSSSDISLLKALEAQGSPSAYGSASSLLSAAANGAEADLKCLRKANGAPIIPPEKLSYLFGVWRMEGDAQHQKA
binding [5]: no binding | binding [3]: binds | binding [4]: binds | binding [6]: binds | binding [7]: binds

B4: VN-Pan, P91943 1-751 (protein)
chain: MPHTHSRHGSSGDDLCSTDEVKIFKDEGDREDEKISSENLLVEEKSSLIDLTESEEKGHKISRPDHSPVFNKLDTHAPSFNMGYLVSPYSYANGSPSGLPVTMANKIGLPPFFCHNADPLSTPPPAHCGIPPYQLDPKMGLTRPALYPFAGGQYPYPMLSSDMSQVASWHTPSVYSASSFRTPYPSSLPINTTLASDFPFRFSPSLLPSVHATSHHVINAHSAIVGVSSKQECGVQDPTTNNRYPRNLEAKHTSNAQSNESKETTNDKKKPHIKKPLNAFMLYMKEMRAKVVAECTLKESAAINQILGRRWHELSREEQSKYYEKARQERQLHMELYPGWSARDNYGYVSKKKKRKKDRSTTDSGGNNMKKCRARFGLDQQSQWCKPCRRKKKCIRYMEALNGNGPAEDGSCFDEHGSQLSDDDEDDYDDDKLGGSCGSADETNKIEDEDSESLNQSMPSPGCLSGLSSLQSPSTTMSLASPLNMNANSATNVIFPASSNALLIVGADQPTAQQRPTLVSTSGSSSGSTSSISTTPNTSSTVSPVTCMTGPCLGSSQERAMMLGNRFSHLGMGLSPPVVSTSTSKSEPFFKPHPTVCNNPIFALPSIGNCSLNISSMPNTSRNPIGANPRDINNPLSINQLTKRREYKNVELIEASESKTIVAHAATSIIQHVAVNGYHANHSLLNSNLGHLHHQLNNRTENPNRSEQTMLSVSNHSVNSSECHKESDSQAIVSSNPPNAGSSDNGVISVS
binding [8]: binds

B5: VN-Bagpipe (protein, UniProt P22809 1-382)
chain: MLNMESAGVSAAMAGLSKSLTTPFSINDILTRSNPETRRMSSVDSEPEPEKLKPSSDRERSISKSPPLCCRDLGLYKLTQPKEIQPSARQPSNYLQYYAAAMDNNNHHHQATGTSNSSAADYMQRKLAYFGSTLAAPLDMRRCTSNDSDCDSPPPLSSSPSESPLSHDGSGLSRKKRSRAAFSHAQVFELERRFAQQRYLSGPERSEMAKSLRLTETQVKIWFQNRRYKTKRKQIQQHEAALLGASKRVPVQVLVREDGSTTYAHMAAPGAGHGLDPALINIYRHQLQLAYGGLPLPQMQMPFPYFYPQHKVPQPIPPPTQSSSFVTASSASSSPVPIPIPGAVRPQRTPCPSPNGQMMSVESGAESVHSAAEDVDENVEID
binding [9]: no binding | binding [6]: no binding

B6: VN-Biniou (protein, UniProt Q9VS05 1-676)
chain: MIKSEEASDRSVMTMDQLGGYYHDPRAHPPFSHPHAHSHPHQHTHTGHPYRAGNLLTGGNYQAMGGGESPTELIDEKPNIGYMELKHYMDATPTATPVSAAQHYSLSALHSMGTPPASSSPIPPYGVLMTAHSAGSASPQSNSKTPTDLPQDLQYASSSTSTAKVQPLQVQLQPLNHQYASTIKYCSNNTILSANDYQLLTSQEQAGQQQPQQLPAQQLQHSPGGGYMSRISTSPSQVISNAHGMPVLNYSSSSSSPAKSLNGSESSPPSQNHLENKVSGSAVVGTGGSSQQDAPSTPDTTKKSGTRRPEKPALSYINMIGHAIKESPTGKLTLSEIYAYLQKSYEFFRGPYVGWKNSVRHNLSLNECFKKLPKGMGVGKPGKGNYWTIDENSAHLFEDEGSLRRRPRGYRSKIKVKPYAGHANGYYASGYGDAGMDNGNYYASPAFASYDYSAAGATGVSPAGGQGFADPWNAHAAHSGSSSVGVGMGVGPLPQYTNISCLAAGGNVNGSATTPPLAHSALGMAPSASSSSSPLGAAATLQSDYAPTASLVAAGYSYATSAGSLDNGLRSISLQQLPGLSSIQHAQAQAQAQAHHHHHQHHASHPSHSHQGHGSMHQNHGTSSTTPPPSQSGGSHGIDHSPIDRKPAYLPPISPPPMMVALNGGGGYYEGLKYAN
binding [9]: no binding

B7: VN-Empty spiracles (protein, UniProt P18488 1-494)
chain: MTKMIPPVPTAAAAVMMPTPKQKIGFSIESIVGNDVSTAGGNSTPDLSGPQSPPPGERNVPGSPPQTPPATLTLIPGSPPHHLMAPPAHGLPYPHPHAQQQHLQAPHPHPHLSPAQQHVLHQHLLMQQQHPGTPKSHQDIQELLQRLHHNAAMASGLSPLQTRLSPETEQPQMAVSLKRERSPAPPAMEQAENPAQRIQPPHTPPKSVSPQSSQPSSSPTLLISSPHATPPQQQQQQPPPNYPKPAMMHPGGAGPMMMPGMPPAGLVRPFPMGPGGPPMPQGQPGLPDIKALPPYINAPPELPPQHNPHLIAAAQFQMAAALQAGHVLGPAAAAAAAAGLPPHAAQFMPNPGMARDSYQLYPWLLSRHGRIFPHRFPGSFLVPPFRKPKRIRTAFSPSQLLKLEHAFESNQYVVGAERKALAQNLNLSETQVKVWFQNRRTKHKRMQQEDEKGGEGGSQRNMHNGSGDEDDDELIDMEMDECPSDEEHELDASH
binding [9]: no binding
